Experiment [1] has as its target PABP (D. melanogaster (endogenous in S2 cells and embryos)) (UniProt P21187). Kind of experiment: affinity purification with mass spectrometry; 0-1 hr embryo extracts immunoprecipitated with FLAG-tagged anti-PABP or anti-eIF4G Fabs (control Fab C1) on anti-FLAG beads, 4°C; LC/MS/MS of the immunoprecipitates.
Experiment [2] has as its target eIF4G (D. melanogaster (endogenous in S2 cells and embryos)). In words: affinity purification with mass spectrometry; S2 cell extracts immunoprecipitated with FLAG-tagged anti-PABP or anti-eIF4G Fabs (control Fab C1) on anti-FLAG beads, 4°C; LC/MS/MS of the immunoprecipitates.

Chains of the proteins cited; added tags and fusions are not shown.
UniProt P21187: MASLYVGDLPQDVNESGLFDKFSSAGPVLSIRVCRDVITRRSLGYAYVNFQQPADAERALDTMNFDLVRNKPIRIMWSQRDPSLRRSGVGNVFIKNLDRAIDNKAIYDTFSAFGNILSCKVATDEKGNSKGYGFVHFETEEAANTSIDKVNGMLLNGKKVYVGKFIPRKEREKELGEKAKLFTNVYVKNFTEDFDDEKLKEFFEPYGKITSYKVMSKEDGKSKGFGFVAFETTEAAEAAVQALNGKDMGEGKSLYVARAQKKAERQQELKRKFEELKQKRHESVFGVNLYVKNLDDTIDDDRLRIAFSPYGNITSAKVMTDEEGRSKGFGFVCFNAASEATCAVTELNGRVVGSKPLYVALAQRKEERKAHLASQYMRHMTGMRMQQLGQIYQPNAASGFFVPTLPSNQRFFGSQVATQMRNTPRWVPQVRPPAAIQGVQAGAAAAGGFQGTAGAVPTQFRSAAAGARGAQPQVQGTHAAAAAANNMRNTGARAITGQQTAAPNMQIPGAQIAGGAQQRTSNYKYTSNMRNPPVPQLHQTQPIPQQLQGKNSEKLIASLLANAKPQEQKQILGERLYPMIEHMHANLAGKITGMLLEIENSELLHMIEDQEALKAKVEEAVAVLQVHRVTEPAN
UniProt O02374: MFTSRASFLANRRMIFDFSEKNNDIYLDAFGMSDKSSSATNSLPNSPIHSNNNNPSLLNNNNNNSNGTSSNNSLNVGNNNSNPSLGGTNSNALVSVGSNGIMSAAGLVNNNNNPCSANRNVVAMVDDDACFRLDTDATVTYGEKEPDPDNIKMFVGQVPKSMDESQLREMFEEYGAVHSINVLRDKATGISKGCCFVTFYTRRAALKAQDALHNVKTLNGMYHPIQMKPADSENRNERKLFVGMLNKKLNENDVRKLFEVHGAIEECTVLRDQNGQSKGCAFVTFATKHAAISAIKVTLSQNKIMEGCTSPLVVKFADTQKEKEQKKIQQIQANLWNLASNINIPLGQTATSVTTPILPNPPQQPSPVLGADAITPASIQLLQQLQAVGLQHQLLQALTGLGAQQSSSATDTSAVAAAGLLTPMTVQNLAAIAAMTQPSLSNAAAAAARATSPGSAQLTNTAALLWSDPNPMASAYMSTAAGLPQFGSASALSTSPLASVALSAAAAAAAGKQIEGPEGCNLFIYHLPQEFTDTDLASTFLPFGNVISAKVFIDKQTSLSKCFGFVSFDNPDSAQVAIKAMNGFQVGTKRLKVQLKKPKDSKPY

No constants are given. Whether binding was seen depends on the method and setting. Binding seen in cells or lysates may run through a third protein. Here binding means that the protein was enriched with, or labelled near, the bait; the list need not be complete. A no says only that the protein was not detected with the bait.

BRU1 (from UniProt O02374 1-604): the binding result in experiment [1] was “no binding”.

B1: Cup (protein, UniProt Q9VMA3 1-1117)
chain: MQMAEAEQENGAGALKIATNAGATDRPAHQQLPLPVEDQQDEVLTPAEKGKFEYPPPPPPPTPVQAPLATKATALNASQEHDDDEANSEKWEDPCAPPPPPPLPTSAFLATGLGYLKLPAFKLKDALEKAITKLEANKRTLKASPESSRSIKNKNVVALEMLPRRSNPETIGDGSMLASTSTAVMLQTKKPAVIVEMERRCKIINLLAKQNQILESISGEAIPMHGPSKHLHEDEGLTLQVLSARASTPYTQPSSMLSCTAVSCDLEHDSPRKQVASKEAVPEQQSSQVQQKRPPSTGIHKPGSLRAPKAVRPTTAPVVSSKPVKSYTRSRLMDIRNGMFNALMHRSKESFVMPRIATCDDIELEGRLRRMNIWRTSDGTRFRTRSTTANLNMNNNNNNECMPAFFKNKNKPNLISDESIIQSQPPQPQTEFQDPAIVNQRRIGSGRLNHSKWGYNDEDYHSYHNGKSQHMEEVNSKNSKNMTVLQFFDNGEISSQPQRRPNTPVMGMSINRSENDTLHSNESSEDLSRANENYVKRVMSGFLVVSKPKSRDVEDRHHRRYRNQNEEPEWFSCGPTSRLDTIELCGFDEDEEKMLKEGNKNHGLGETERETSKQKMDHKYKWTHAEPMGRSKYMPKHDTNNNHNVENMNNVMATEHQQQKEEKRPGSGRSFQFDKFNQSQQNYESSSYVNHQQPPQTQPQQMQQQSNTNTNNSKFMSFFANEGNSSSSSLNEFFKQAINQGHGNNPEQPKSLGHIGQMPSVDQLEAKWRRNSLNNVGETANKQTDNFQKLIGSLSSAKPQSQAVGYDAISNFIMQQQQYQQQQQKQHLIIQQQQQHTAFLASLQLKAILGRADTQLLLLRLTKGEISKHGLLVQLANPRLTDMDREAITAVLQFTNTQQQQQQHKQQLDMLSSTVIASQLQNLHNLAIVQQTLAARQQPQHNPQTQAPHQLSQEDLQAHANVIMRNAVMKRKIEEQTSKLINGGAKHQAQQQYLNRGQQRQARPDANSNALLHALISGGGNNHASGYPMNGQPQKHHSNLRFGDNQNFQSFESNQPHFATQYKQQYQQSQQQHPHQQPQQLNSLHQNNAGAVNSFNKAQMQAQSAISMLPNSGDEFH
For the molecule B1, the binding result in experiment [1] was “binds”.

B2: ME31B (protein, UniProt P23128 1-459)
chain: MMTEKLNSGHTNLTSKGIINDLQIAGNTSDDMGWKSKLKLPPKDNRFKTTDVTDTRGNEFEEFCLKRELLMGIFEKGWERPSPIQEAAIPIALSGKDVLARAKNGTGKTGAYCIPVLEQIDPTKDYIQALVMVPTRELALQTSQICIELAKHLDIRVMVTTGGTILKDDILRIYQKVQLIIATPGRILDLMDKKVADMSHCRILVLDEADKLLSLDFQGMLDHVILKLPKDPQILLFSATFPLTVKNFMEKHLREPYEINLMEELTLKGVTQYYAFVQERQKVHCLNTLFSKLQINQSIIFCNSTQRVELLAKKITELGYCCYYIHAKMAQAHRNRVFHDFRQGLCRNLVCSDLFTRGIDVQAVNVVINFDFPRMAETYLHRIGRSGRFGHLGIAINLITYEDRFDLHRIEKELGTEIKPIPKVIDPALYVANVGASVGDTCNNSDLNNSANEEGNVSK
Regarding B2, the binding entry in experiment [2] was “no binding”.

For the origin of these results see paper PMC5779226.
